## Screening data, single-dose tests

Amino acid sequences for entries named in this document (tags omitted). Residues count along the entry.
UniProt Q4DA54, 1-478: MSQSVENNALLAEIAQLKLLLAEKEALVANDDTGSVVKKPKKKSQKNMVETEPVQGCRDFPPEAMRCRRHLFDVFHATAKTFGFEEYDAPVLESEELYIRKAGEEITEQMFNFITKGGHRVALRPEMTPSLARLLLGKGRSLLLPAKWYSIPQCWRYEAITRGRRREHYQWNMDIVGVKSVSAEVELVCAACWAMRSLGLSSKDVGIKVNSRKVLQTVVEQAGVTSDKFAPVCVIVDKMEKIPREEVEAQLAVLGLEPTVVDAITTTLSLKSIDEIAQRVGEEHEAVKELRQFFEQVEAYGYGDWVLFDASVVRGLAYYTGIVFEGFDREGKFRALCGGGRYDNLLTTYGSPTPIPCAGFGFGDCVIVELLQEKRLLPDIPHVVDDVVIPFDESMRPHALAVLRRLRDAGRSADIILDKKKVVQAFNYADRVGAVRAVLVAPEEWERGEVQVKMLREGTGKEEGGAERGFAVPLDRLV
UniProt P9WNZ1, whole entry: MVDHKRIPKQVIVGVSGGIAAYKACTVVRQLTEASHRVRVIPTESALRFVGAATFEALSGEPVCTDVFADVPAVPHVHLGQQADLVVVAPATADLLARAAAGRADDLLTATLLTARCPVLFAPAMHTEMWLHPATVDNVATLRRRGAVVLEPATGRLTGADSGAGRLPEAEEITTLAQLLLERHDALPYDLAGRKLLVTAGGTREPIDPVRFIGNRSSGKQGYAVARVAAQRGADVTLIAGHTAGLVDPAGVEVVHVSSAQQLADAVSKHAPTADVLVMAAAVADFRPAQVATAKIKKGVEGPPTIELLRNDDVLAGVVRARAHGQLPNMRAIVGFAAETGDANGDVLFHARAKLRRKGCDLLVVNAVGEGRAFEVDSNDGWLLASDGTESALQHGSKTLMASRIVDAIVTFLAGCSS

From ChEMBL document CHEMBL3988442, “University of Dundee, Small-Polar-MMV Screening Library” (2021).

The filed quantity is “Percent Effect” (%). The controls that fix the scale are not given in the record; negative values are as filed. This is an unselected part of the compounds tested.

TcHisRS: 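Histidine-tRNA ligase, Trypanosoma cruzi CL Brener (UniProt Q4DA54). Enzyme assay of histidyl-tRNA synthetase; the read-out is not stated. Compounds at 30 µM. Direction is inferred from retests: higher values go with stronger inhibition. Of about 69,000 compounds tested this way, about 31 (0.045%) reached 50% or more in at least one test.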
CoaBC: 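Enzyme assay of CoaBC with a phosphate dye (Biomol Green) read at 650 nm. Target: Coenzyme A biosynthesis protein CoaBC, Mycobacterium tuberculosis (UniProt P9WNZ1). Tested at 30 µM. Higher reads as stronger inhibition, judged from the few compounds that gave an IC50. Most strong results did not repeat in a second test. Of about 67,000 compounds tested this way, about 40 (0.06%) reached 50% or more in at least one test.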

For CCCS(=O)(=O)N1CCC(NC(=O)c2cc(CC)c(C)s2)CC1 the result was TcHisRS: 5%; CoaBC: 2.066%. Cn1ncc2c1C(COCC1CC1)CN(Cc1ccco1)C2 (configuration not stated) read TcHisRS: 12.81%; CoaBC: 5.076%. Result for COc1ccc(C(=O)N(c2ccc(OC)c(F)c2)C(C)C)cn1 was TcHisRS: 2.762%; CoaBC: 5.492%. CC1(C(=O)NCc2cccnc2Oc2ccc(F)c(F)c2)CCCNC1 (configuration not stated) read TcHisRS: -3.784%; CoaBC: 4.545%.

With Cn1cc(C(=O)N2C[C@@H]3COC[C@]3(COCc3cccnc3)C2)cn1 the screen gave TcHisRS: 1.087%; CoaBC: 1.648%. COc1ccc(C2CCCN2S(=O)(=O)N(C)CC(C)C)cc1 (configuration not stated) read TcHisRS: 1.626%; CoaBC: -8.017%. For CCCN(CCC)C(=O)CN1CCCC1C(=O)N(C)C (configuration not stated) the result was TcHisRS: 8.333%; CoaBC: -1.351%. CN1CCCN(C(=O)c2cccn2-c2ccc3c(c2)OCCO3)CC1 read TcHisRS: 5%; CoaBC: -14.05%.

With CSC1(CNc2ccc(Br)cn2)CCOCC1 the screen gave TcHisRS: 6.557%; CoaBC: 12.96%. CC(C)(C)c1cnc(CN2CCCS(=O)(=O)CC2)o1 gave TcHisRS: 11.34%; CoaBC: 5.495%. CC(Nc1nccc(CCC(F)(F)F)n1)c1nc(-c2ccncc2)no1 (configuration not stated) read TcHisRS: 8.537%; CoaBC: 6.203%. For O=C(NCc1ccncc1)Nc1cc(C(F)(F)F)c[nH]c1=O the result was TcHisRS: 6.471%; CoaBC: 4.604%.

CN(C)C(=O)NC1COC2(CCN(C(=O)c3ccc(Cl)cc3)CC2)C1 (configuration not stated) gave TcHisRS: 10.68%; CoaBC: 4.835%. Cc1ccc2nnc(C(=O)NCC3CCCC3)nc2c1 read TcHisRS: 13.4%; CoaBC: 1.79%. For CCN(CC)CCCNC(=O)c1nn(CC)cc1Cl the result was TcHisRS: 1.739%; CoaBC: -0.4619%. For CC(C)Sc1nnc(CCNC(=O)OC(C)(C)C)o1 the result was TcHisRS: 0.5464%; CoaBC: 0.6729%.

Result for O=C1NCC(C(=O)Nc2ncc(Cc3cccc(F)c3)s2)N1 (configuration not stated) was TcHisRS: 7.736%; CoaBC: 3.602%. O=C(c1cnccn1)N1C[C@@H]2C[C@@H](c3nc(C4CC4)cs3)O[C@@H]2C1 gave TcHisRS: 13.07%; CoaBC: 2.746%. CN1CCCC2(CCN(c3cccc(C#N)n3)C2)C1=O (configuration not stated) gave TcHisRS: 0.4926%; CoaBC: 2.903%. With Cc1ncsc1-c1nc(-c2cccc(CN3CCOCC3)c2)no1 the screen gave TcHisRS: 4.372%; CoaBC: 19.8%.

COc1ccc(NC(=O)c2cnc(N3CCN(C)CC3)nc2C)cc1 read TcHisRS: 1.98%; CoaBC: -0.1211%. For CNC(=O)c1cn[nH]c1C1CCCN1C(=O)c1cccnc1 (configuration not stated) the result was TcHisRS: 0.7463%; CoaBC: 0.2433%. For Cc1nc(Nc2cnccn2)cc(C2CCN(c3ncccn3)C2)n1 (configuration not stated) the result was TcHisRS: -0.7491%; CoaBC: 1.363%. CCC(NC(=O)c1cc(CC(C)C)nn1C)c1cc(C)ccn1 (configuration not stated) gave TcHisRS: -1.093%; CoaBC: 15.47%.

Result for COc1ccc(C(CNC(=O)c2cnc(C)cn2)N2CCOCC2)cc1 (configuration not stated) was TcHisRS: 3.941%; CoaBC: -0.9615%. For CN(C)c1cc(CNC(=O)Nc2nncs2)ccn1 the result was TcHisRS: 4.843%; CoaBC: -5.63%. With O=C(NCCC1CC1)NCc1cccc(-n2ccnc2)c1 the screen gave TcHisRS: 8.537%; CoaBC: 2.532%. With CNC(=O)C1CCC(NC(=O)c2cc(C3CC3)n(C(C)(C)C)n2)CC1 (configuration not stated) the screen gave TcHisRS: 5%; CoaBC: -1.453%.

With CC1(C)CN(C(=O)CC2CCC2)C[C@]1(C)O the screen gave TcHisRS: 4.046%; CoaBC: 5.785%. For CN1CCN(C(=O)c2cn3ccsc3n2)[C@H]2CS(=O)(=O)C[C@H]21 the result was TcHisRS: 4.103%; CoaBC: 3.215%. For CNCc1n[nH]c(=O)n1CC1CCCCC1 the result was TcHisRS: 3.448%; CoaBC: -11.6%. Result for O=C(C1CCC1)N1C[C@@H]2CC[C@H](C1)N(S(=O)(=O)c1cccnc1)C2 was TcHisRS: 9.392%; CoaBC: 9.223%.

C=C(C)COc1ccccc1C(=O)NCCCc1nnn[nH]1 read TcHisRS: 5.473%; CoaBC: 5.926%.

For reference, 3 entries once more:

- CCN(CC)CCCNC(=O)c1nn(CC)cc1Cl | TcHisRS: 1.739%; CoaBC: -0.4619%
- O=C1NCC(C(=O)Nc2ncc(Cc3cccc(F)c3)s2)N1 (configuration not stated) | TcHisRS: 7.736%; CoaBC: 3.602%
- CN(C)C(=O)NC1COC2(CCN(C(=O)c3ccc(Cl)cc3)CC2)C1 (configuration not stated) | TcHisRS: 10.68%; CoaBC: 4.835%